From paper PMC9496625
These are yes or no findings as the source states them, for the method shown. Binding seen in cells or lysates may run through a third protein. Some results given as binding are weak or reduced against the parent protein; the word gives no strength.

Key:
[1] = target: NMDA receptor subunit GluN2B (rat (endogenous in cultured cortical neurons)) (UniProt Q00960); assay: co-IP; endogenous proteins in lysates (500 µg) of rat cortical neurons 12 d in culture; capture antibody (5 µg) prebound to protein A magnetic beads, overnight at 4 °C; immunoblot; cells treated with sham OGD or 30 min OGD and 1 h recovery, with or without 3 µM jasplakinolide
[2] = target: NMDA receptor subunit GluN2A (rat (endogenous in cultured cortical neurons)) (UniProt Q00959); assay: as above

| binding [1] | binding [2] | Substance |
| --- | --- | --- |
| binds | – | NMDA receptor subunit GluN2A (from UniProt Q00959 23-1464) |
| – | binds | NMDA receptor subunit GluN2B (from UniProt Q00960 27-1482) |
